According to US5510460 (dated 1996):

Assay: general procedure: peptide synthesis; Boc-Pro-OBzl-polystyrene resin 1% cross-linked with divinylbenzene (Peninsula Laboratories, 0.38 meq/g); HOBt and DIPC (benzotriazolyl esters)
Details: whole synthesis

goserelin
isolated mass: 100 mg | isolated yield (overall, scale of the general procedure 1.25 g resin): 25% yield overall
